The target of experiment [1] is T1, LMO4 (UniProt P61968).
T1 sequence (looked up): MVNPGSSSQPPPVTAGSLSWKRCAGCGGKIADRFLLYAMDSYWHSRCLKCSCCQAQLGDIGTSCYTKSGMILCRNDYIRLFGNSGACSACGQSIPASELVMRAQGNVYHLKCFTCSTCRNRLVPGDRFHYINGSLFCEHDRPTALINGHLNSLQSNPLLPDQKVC
The experiment can be described thus: yeast two-hybrid screen, carboxy terminus of MTA1s as bait.

Experiment [2] addresses T2, bifunctional ATP sulfurylase/adenosine 5'-phosphosulfate (APS) kinase (UniProt O43252).
T2 sequence (looked up): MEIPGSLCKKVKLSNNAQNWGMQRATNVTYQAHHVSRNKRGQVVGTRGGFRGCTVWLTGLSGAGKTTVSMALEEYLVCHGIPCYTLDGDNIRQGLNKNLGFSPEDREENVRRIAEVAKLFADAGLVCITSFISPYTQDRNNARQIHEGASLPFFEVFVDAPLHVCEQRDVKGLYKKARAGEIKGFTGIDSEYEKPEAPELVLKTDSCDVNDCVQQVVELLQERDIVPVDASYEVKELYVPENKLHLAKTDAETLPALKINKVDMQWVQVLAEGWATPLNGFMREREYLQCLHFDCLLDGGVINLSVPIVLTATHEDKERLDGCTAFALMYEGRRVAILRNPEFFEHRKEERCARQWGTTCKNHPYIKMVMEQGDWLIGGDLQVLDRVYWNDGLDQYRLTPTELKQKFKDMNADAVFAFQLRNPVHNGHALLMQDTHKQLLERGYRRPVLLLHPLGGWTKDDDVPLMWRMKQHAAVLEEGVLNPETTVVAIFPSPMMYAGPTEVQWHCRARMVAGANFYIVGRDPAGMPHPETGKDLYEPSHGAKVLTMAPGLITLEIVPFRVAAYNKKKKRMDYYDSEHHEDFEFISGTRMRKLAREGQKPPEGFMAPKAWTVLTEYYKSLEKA
The description is as above.

No constants are given. Whether binding was seen depends on the method and setting. Some entries that bind do so weakly or less than the wild type.

B1: carboxy terminus of MTA1s (yeast two-hybrid bait) (peptide)
chain: MSSLRILLDILEEIWWLENANPVRWREARTKPQ
Consider B1, for which the binding result in experiment [1] and in experiment [2] was “binds” in each case.

Values taken from patent US20060204957A1, “Mta1s, a steriod hormone receptor corepressor” (priority 2002, published 2006).
